Measured values: patent US20250034273A1

How the values were obtained:
human CD3 (human) [1] = assay: Octet (BLI)
monkey CD3 (monkey) [2] = assay: Octet (BLI)
human CD3 (human) [3] = assay: absorbance assay (Net absorbance, Abs 450) on 'Human CD3-mG2a'; one unprinted antibody concentration
monkey CD3 (monkey) [4] = assay: absorbance assay (Net absorbance, Abs 450) on 'Cynomolgus CD3'; one unprinted antibody concentration; calls it Octet binding analysis
monkey CD3 (monkey) [5] = assay: absorbance assay (Net absorbance, Abs 450) on 'Cynomolgus CD3'; antibody concentration not given
monkey CD3 (monkey) [6] = assay: absorbance assay (Net absorbance, Abs 450) on 'Cynomolgus CD3'; one unprinted antibody concentration

| binding (human CD3 (human) [1]) | binding (monkey CD3 (monkey) [2]) | binding (human CD3 (human) [3]) | binding (monkey CD3 (monkey) [4]) | binding (monkey CD3 (monkey) [5]) | binding (monkey CD3 (monkey) [6]) | Binder |
| --- | --- | --- | --- | --- | --- | --- |
| binds | binds | binds | binds | – | – | h8B5-h3G8v2, bispecific anti-Trop2 (h8B5) / anti-CD3 (h3G8 scFv V2, VL-VH with 3xGS linker) (bispecific antibody, human IgG1, kappa) heavy: EVQLVESGGGLVQPGGSLRLSCAASGFTFSTYTMSWVRQTPAKGLVWVSTINSDGYNIYYSDSMKGRFTISRDNAKYTLYLQMNSLRAEDTAMYYCARCSYYSYDYFDYWGQGTLVTVSSASTKGPSVFPLAPSSKSTSGGTAALGCLVKDYFPEPVTVSWNSGALTSGVHTFPAVLQSSGLYSLSSVVTVPSSSLGTQTYICNVNHKPSNTKVDKRVEPKSCDKTHTCPPCPAPELLGGPSVFLFPPKPKDTLMISRTPEVTCVVVDVSQEDPEVQFNWYVDGVEVHNAKTKPREEQFNSTYRVVSVLTVLHQDWLNGKEYKCKVSNKGLPSSIEKTISKAKGQPREPQVYTLPPSQEEMTKNQVSLTCLVKGFYPSDIAVEWESNGQPENNYKTTPPVLDSDGSFFLYSRLTVDKSRWQEGNVFSCSVMHEALHNHYTQKSLSLSLGKPAGGGGSDIVMTQSPDSLAVSLGERATINCKSSQSLLNSRTRKNYLAWYQQKPGQPPKLLIYWASTRESGVPDRFSGSGSGTDFTLTISSLQAEDVAVYYCTQSFILRTFGQGTKVEIKGGGGSGGGGSGGGGSQVQLVQSGAEVKKPGASVKVSCKASGYTFTSYYMHWVRQAPGQGLEWMGWIYPENVNTNYAQKFQGRVTMTRDTSISTAYMELSRLRSDDTAVYYCARDSYGSYFFDYWGQGTLVTVSS light: DIQMTQSPSSLSASVGDRVTITCRASENIDNYLAWYQQKQGKVPKLLIYAATNLADGMPSRFSGSGSGTDFTLTISSLQPEDVATYYCQHYYSNQLTFGQGTKLEIKRTVAAPSVFIFPPSDEQLKSGTASVVCLLNNFYPREAKVQWKVDNALQSGNSQESVTEQDSKDSTYSLSSTLTLSKADYEKHKVYACEVTHQGLSSPVTKSFNRGEC |
| – | – | binds | – | no binding | – | ARB203-h3G8 v1 (bispecific antibody) heavy: EVQLVESGGGLVQPGGSLRLSCAASGFTFSTYTMSWVRQTPAKGLVWVSTINSDGYNIYYSDSMKGRFTISRDNAKYTLYLQMNSLRAEDTAMYYCARCSYYSYDYFDYWGQGTLVTVSSASTKGPSVFPLAPSSKSTSGGTAALGCLVKDYFPEPVTVSWNSGALTSGVHTFPAVLQSSGLYSLSSVVTVPSSSLGTQTYICNVNHKPSNTKVDKRVEPKSCDKTHTCPPCPAPELLGGPSVFLFPPKPKDTLMISRTPEVTCVVVDVSQEDPEVQFNWYVDGVEVHNAKTKPREEQFNSTYRVVSVLTVLHQDWLNGKEYKCKVSNKGLPSSIEKTISKAKGQPREPQVYTLPPSQEEMTKNQVSLTCLVKGFYPSDIAVEWESNGQPENNYKTTPPVLDSDGSFFLYSRLTVDKSRWQEGNVFSCSVMHEALHNHYTQKSLSLSLGKPAGGGGSQVQLVQSGAEVKKPGASVKVSCKASGYTFTSYYMHWVRQAPGQGLEWMGWIYPENVNTNYAQKFQGRVTMTRDTSISTAYMELSRLRSDDTAVYYCARDSYGSYFFDYWGQGTLVTVSSGGGGSGGGGSGGGGSDIVMTQSPDSLAVSLGERATINCKSSQSLLNSRTRKNYLAWYQQKPGQPPKLLIYWASTRESGVPDRFSGSGSGTDFTLTISSLQAEDVAVYYCTQSFILRTFGQGTKVEIK light: DIQMTQSPSSLSASVGDRVTITCRASENIDNYLAWYQQKQGKVPKLLIYAATNLADGMPSRFSGSGSGTDFTLTISSLQPEDVATYYCQHYYSNQLTFGQGTKLEIKRTVAAPSVFIFPPSDEQLKSGTASVVCLLNNFYPREAKVQWKVDNALQSGNSQESVTEQDSKDSTYSLSSTLTLSKADYEKHKVYACEVTHQGLSSPVTKSFNRGEC |
| binds | binds | binds | – | – | binds | h8B5-h3G8v3, bispecific anti-Trop2 (h8B5) / anti-CD3 (h3G8 scFv V3, VH-VL with 6xGS linker) (bispecific antibody, human IgG1, kappa) heavy: EVQLVESGGGLVQPGGSLRLSCAASGFTFSTYTMSWVRQTPAKGLVWVSTINSDGYNIYYSDSMKGRFTISRDNAKYTLYLQMNSLRAEDTAMYYCARCSYYSYDYFDYWGQGTLVTVSSASTKGPSVFPLAPSSKSTSGGTAALGCLVKDYFPEPVTVSWNSGALTSGVHTFPAVLQSSGLYSLSSVVTVPSSSLGTQTYICNVNHKPSNTKVDKRVEPKSCDKTHTCPPCPAPELLGGPSVFLFPPKPKDTLMISRTPEVTCVVVDVSQEDPEVQFNWYVDGVEVHNAKTKPREEQFNSTYRVVSVLTVLHQDWLNGKEYKCKVSNKGLPSSIEKTISKAKGQPREPQVYTLPPSQEEMTKNQVSLTCLVKGFYPSDIAVEWESNGQPENNYKTTPPVLDSDGSFFLYSRLTVDKSRWQEGNVFSCSVMHEALHNHYTQKSLSLSLGKPAGGGGSQVQLVQSGAEVKKPGASVKVSCKASGYTFTSYYMHWVRQAPGQGLEWMGWIYPENVNTNYAQKFQGRVTMTRDTSISTAYMELSRLRSDDTAVYYCARDSYGSYFFDYWGQGTLVTVSSGGGGSGGGGSGGGGSGGGGSGGGGSGGGGSDIVMTQSPDSLAVSLGERATINCKSSQSLLNSRTRKNYLAWYQQKPGQPPKLLIYWASTRESGVPDRFSGSGSGTDFTLTISSLQAEDVAVYYCTQSFILRTFGQGTKVEIK light: DIQMTQSPSSLSASVGDRVTITCRASENIDNYLAWYQQKQGKVPKLLIYAATNLADGMPSRFSGSGSGTDFTLTISSLQPEDVATYYCQHYYSNQLTFGQGTKLEIKRTVAAPSVFIFPPSDEQLKSGTASVVCLLNNFYPREAKVQWKVDNALQSGNSQESVTEQDSKDSTYSLSSTLTLSKADYEKHKVYACEVTHQGLSSPVTKSFNRGEC |

Results are given in words; binding and its absence hold for the method and conditions named. For some of these results: Binding calls can cover weak binding; strength is not graded here.
